# This is one part of the list.
# Chains of the proteins cited; added tags and fusions are not shown.
# UniProt Q0JBA9, entry or part of it: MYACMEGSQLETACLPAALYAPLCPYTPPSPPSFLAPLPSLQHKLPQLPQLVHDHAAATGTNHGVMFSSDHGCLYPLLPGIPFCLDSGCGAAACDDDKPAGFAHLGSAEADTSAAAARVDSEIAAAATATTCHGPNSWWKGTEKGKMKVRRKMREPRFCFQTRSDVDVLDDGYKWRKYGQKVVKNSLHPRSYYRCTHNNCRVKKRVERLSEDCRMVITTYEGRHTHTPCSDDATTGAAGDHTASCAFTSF
# Target: OsWRKY34 (Oryza sativa, UniProt Q0JBA9 1-250)
# Experiment: protein-binding microarray (RPBM); PBS, 2% BSA, 51.3 ng/ul salmon testes DNA, 50 uM zinc acetate, 200 nM TF, 25 C, 1 h; high values mean tight binding
# Conditions: protein: recombinant; tags: N-terminal polyhistidine and DsRed monomer fusion (pET32a); label: CyDye5-dUTP incorporated in the synthesized complementary strand; 3' TTTTT single-stranded linker to array surface; dsDNA, one strand shown
# How it was run: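 A custom Agilent array was converted to double-stranded form by primer extension with Cy5-dUTP and blocked with 2% BSA. Protein at 200 nM in PBS with 2% BSA, salmon testes DNA and 50 µM zinc acetate was applied for 1 h at 25 °C, followed by washing. The proteins were polyhistidine–DsRed N-terminal fusions of transcription factors, expressed in E. coli BL21-CodonPlus and Ni–NTA-purified. The binding signal is per-feature fluorescence intensity (arbitrary units) from an Axon 4000B scanner.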
row,Sequence,binding signal
1,ATCCTATTCTACTTAGGTCGCTTTTTATTTGGACGGAGGGCGGAGTCACCTAGTGCAG,8610 fluorescence intensity (a.u.)
2,GGTGCTTGAATGTCGAACCATCTACTAACATGGTTTCCAACGGAGTCACCTAGTGCAG,8680 fluorescence intensity (a.u.)
3,TTGTTTCCTATACTTCCTACCAAATGTTCTGATTTTACTGCGGAGTCACCTAGTGCAG,9520 fluorescence intensity (a.u.)
4,CTCTCTCACACATCTCCATCTAGATTAATTTGCACACAATCGGAGTCACCTAGTGCAG,8060 fluorescence intensity (a.u.)
5,CTCTCACTGTCTCACTGTCTCACTCTCTCTTGCCCACATTCGGAGTCACCTAGTGCAG,8470 fluorescence intensity (a.u.)
6,GGGTCTGCTACGATAGGTGGAAGTGTGCCCATATCCACTCCGGAGTCACCTAGTGCAG,8750 fluorescence intensity (a.u.)
7,TGCGCCATCTTTTGTCGTCCCGAGGGGATGGGCGGGGTTGCGGAGTCACCTAGTGCAG,16400 fluorescence intensity (a.u.)
8,GTCATTCTGAGTGTCTGCCTCTCAATGAGCACTCTTTTCACGGAGTCACCTAGTGCAG,9650 fluorescence intensity (a.u.)
9,AACCTGCAAGCGCTCGACCGGTCATCATTCATCAGCTAAACGGAGTCACCTAGTGCAG,8410 fluorescence intensity (a.u.)
10,CCCTTGTCGCCGGATTGCAACAACGAGTGCATTTTCTTGTCGGAGTCACCTAGTGCAG,8180 fluorescence intensity (a.u.)
11,CCACGCAGGTTTGTTTTTGCTCTGTTTTCAGTTCCGATAACGGAGTCACCTAGTGCAG,8840 fluorescence intensity (a.u.)
12,ACCTTGGATCACTTAATATAACCATTTGTTTCATCCTGGACGGAGTCACCTAGTGCAG,10500 fluorescence intensity (a.u.)
13,AGAACGCGTTACGGATTGAAGTGCTCTTTTTTTGTTTTTGCGGAGTCACCTAGTGCAG,9270 fluorescence intensity (a.u.)
14,TCTCCTCACGACATTCTCGCGCTCTCCCCTCCTGTAAAGACGGAGTCACCTAGTGCAG,9260 fluorescence intensity (a.u.)
15,GAGGGCGAGGAGGGAAGGAGGGAGGGAGGCGACAGGCATGCGGAGTCACCTAGTGCAG,8400 fluorescence intensity (a.u.)
16,GCATCCCACATCCCTGTCTTTCTCCTCTCCTACCCTTCTTCGGAGTCACCTAGTGCAG,8940 fluorescence intensity (a.u.)
17,GATTTAGCCAGTATAATTTGGCTTCTTACCTATCCATTTTCGGAGTCACCTAGTGCAG,9130 fluorescence intensity (a.u.)
18,AACTAAACACATCCTTATCGATGCTACCTTACCAAATTAACGGAGTCACCTAGTGCAG,10300 fluorescence intensity (a.u.)
19,GTGTCTCGTCTCCGCCACCACCGCCGTCCCGGTCCAACCGCGGAGTCACCTAGTGCAG,8230 fluorescence intensity (a.u.)
20,GAGAGGATGGTAGGTGATGCATGGTGGAGAGGGGAAAAAGCGGAGTCACCTAGTGCAG,8500 fluorescence intensity (a.u.)
21,CTGCATGTAGCCGTTCCGCCTTGCTGGCCGCTGACTCCTGCGGAGTCACCTAGTGCAG,8650 fluorescence intensity (a.u.)

# An excerpt of these results, tab-delimited:
row	Sequence	binding signal
14	TCTCCTCACGACATTCTCGCGCTCTCCCCTCCTGTAAAGACGGAGTCACCTAGTGCAG	9260 fluorescence intensity (a.u.)
15	GAGGGCGAGGAGGGAAGGAGGGAGGGAGGCGACAGGCATGCGGAGTCACCTAGTGCAG	8400 fluorescence intensity (a.u.)

# Further results.

row,Sequence,binding signal
1,CCCTCTTCTCTTGTACTTACTTGTGCTTGCTCTCTTCCATCGGAGTCACCTAGTGCAG,8220 fluorescence intensity (a.u.)
2,GTTTTCTCCGACTCTGAGAATAGTTTTTCGTGCGCCATCTCGGAGTCACCTAGTGCAG,8180 fluorescence intensity (a.u.)
3,AGTTTGCTTTGTTCTCATAAATATCAATGTGAAATACTTACGGAGTCACCTAGTGCAG,8680 fluorescence intensity (a.u.)
4,ATCCATCCATCCATCCATCCATCTCCCACCACCACACCTTCGGAGTCACCTAGTGCAG,8900 fluorescence intensity (a.u.)
5,CGGGCCACTTATATATCAGTTTCTTTGTCCTTACACAACCCGGAGTCACCTAGTGCAG,8110 fluorescence intensity (a.u.)
6,CCTTTATATCATTATTTACATTGGACATATAGTCGATTGCCGGAGTCACCTAGTGCAG,8400 fluorescence intensity (a.u.)
7,CTCGACCACACATATATGTTCGATACATTCCATATCTTCCCGGAGTCACCTAGTGCAG,10700 fluorescence intensity (a.u.)
8,TTGTGTTGATGGATGATGCGATATCCTCTTCAGTGAATGCCGGAGTCACCTAGTGCAG,8040 fluorescence intensity (a.u.)
9,ACCGTTTACTTGTGCTTTGTCCTCTTGTCGCCACGTCCCACGGAGTCACCTAGTGCAG,15600 fluorescence intensity (a.u.)
10,GTTAATAATTTCACCGGACTTTATATATCTACTCCTTCGCCGGAGTCACCTAGTGCAG,8190 fluorescence intensity (a.u.)
11,TTCGTCGCTCGGTCTGTGCCTGCTCCCTTCCTTGCTGCTCCGGAGTCACCTAGTGCAG,9390 fluorescence intensity (a.u.)
12,TAGAGGTGGGCGGTAGGGGCTATTTCTGCAATTTTTTGGTCGGAGTCACCTAGTGCAG,9680 fluorescence intensity (a.u.)
13,GCCACACGTGCGACACGTAGACCAAAACCACCGCGGATTGCGGAGTCACCTAGTGCAG,8090 fluorescence intensity (a.u.)
14,GAGCCTTTTTTTTTTTACCTCCCTTTCTTCTTCTTTTTTCCGGAGTCACCTAGTGCAG,13200 fluorescence intensity (a.u.)
15,GCACTCCCTTTAGCCAGTTACCAAAAATATCTTTTGCATTCGGAGTCACCTAGTGCAG,8450 fluorescence intensity (a.u.)
16,CCTCGGCTACACACCCATGACCCATCCCACCACCACCTGTCGGAGTCACCTAGTGCAG,10600 fluorescence intensity (a.u.)
17,TATATATATATATATATATATATATATATATATGGAGTATCGGAGTCACCTAGTGCAG,24600 fluorescence intensity (a.u.)
18,GGTCGGGCCGCATTGATTGCACATCTTGTCCTCATGCCTTCGGAGTCACCTAGTGCAG,8550 fluorescence intensity (a.u.)
19,TCTTCTTTTTATCGTCTAGTATCTATATTCGTAGAGTTTGCGGAGTCACCTAGTGCAG,8700 fluorescence intensity (a.u.)
20,CTCGTCTCTCGGTCTCGTTCCCGTACACGTCGCGATGTGACGGAGTCACCTAGTGCAG,8400 fluorescence intensity (a.u.)
21,ATTTCCTCAACAATCTATTAGGTTTTGTGCTCTCACTAATCGGAGTCACCTAGTGCAG,8330 fluorescence intensity (a.u.)

# Reference: publication PMC7819943, “Rice protein-binding microarrays: a tool to detect cis-acting elements near promoter regions in rice”
